Experimental data: article PMC6602471
The exact form of at least one protein or probe is not confirmed. Whether high values mean tight binding is not given here for every scale.

These sequences were tested against T1, ETS1 (Homo sapiens) (UniProt P14921) (assay: PBM). Conditions: Custom protein-binding microarray; recombinant protein.
T1 sequence (P14921 whole entry, looked up): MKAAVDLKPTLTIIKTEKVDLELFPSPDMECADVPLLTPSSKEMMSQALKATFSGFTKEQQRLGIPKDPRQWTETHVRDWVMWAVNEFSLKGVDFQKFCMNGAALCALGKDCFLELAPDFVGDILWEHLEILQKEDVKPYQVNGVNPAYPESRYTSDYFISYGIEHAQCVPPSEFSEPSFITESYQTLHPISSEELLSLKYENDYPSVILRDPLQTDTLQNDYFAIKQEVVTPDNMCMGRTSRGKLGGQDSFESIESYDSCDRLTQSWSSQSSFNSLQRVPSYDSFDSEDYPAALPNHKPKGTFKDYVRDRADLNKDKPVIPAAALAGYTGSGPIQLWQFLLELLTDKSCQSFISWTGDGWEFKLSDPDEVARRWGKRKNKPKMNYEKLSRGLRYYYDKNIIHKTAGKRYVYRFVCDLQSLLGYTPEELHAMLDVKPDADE

**Q.** “CACAATTTTTACAGTAATGTAGCACGCGTAACTCCTGTCTTGATTCGCTTGACGCTGCTG (double strand) [seq11_wt0]” was tested. Which binding signal did it give?
**A.** 8.15 log signal

**Q.** For “CAGCATAGGACTTCTTCCCTGAAGCAATTGATAACCGTCTTGATTCGCTTGACGCTGCTG (double strand) [seq06_wt0]”, which binding signal is on record?
**A.** 8.39 log signal

**Q.** “CTGGGACTTGACCCAACTCTGCCACGTGGGTCGTTTGTCTTGATTCGCTTGACGCTGCTG (double strand) [seq07_wt0]” was tested. Which binding signal did it give?
**A.** 8.2 log signal

**Q.** How did the binding signal turn out when “GATTAATTTCTGCCCTTATTCGCACGTGCCATAACAGTCTTGATTCGCTTGACGCTGCTG (double strand) [seq08_wt0]” was run?
**A.** 8.22 log signal

**Q.** With “GTGTATAGGATCCCATCCAACACACGTGTTAAAATGGTCTTGATTCGCTTGACGCTGCTG (double strand) [seq10_wt0]” as the sequence, how does the binding signal read?
**A.** 8.35 log signal

**Q.** With “TAAAGGGAAGACGGTTGTGGTAGTTCCGGGTATTAAGTCTTGATTCGCTTGACGCTGCTG (double strand) [seq03_wt0]” as the sequence, how does the binding signal read?
**A.** 8.52 log signal

**Q.** For “TACTGACTTATATATGCGAATGCACATGAATAGACCGTCTTGATTCGCTTGACGCTGCTG (double strand) [seq12_wt0]”, which binding signal is on record?
**A.** 8.15 log signal

**Q.** For “TCCGGCTACCAGCTCCACCCACTTCAGGCCTTGTAGGTCTTGATTCGCTTGACGCTGCTG (double strand) [seq05_wt0]”, which binding signal is on record?
**A.** 8.36 log signal

**Q.** How did the binding signal turn out when “TGTCGGGTAAGGGAATGTAGATCACGTGAATGAAAAGTCTTGATTCGCTTGACGCTGCTG (double strand) [seq09_wt0]” was run?
**A.** 8.22 log signal
